Reference: the supplement of paper PMC12823440, “Inhibitors supercharge kinase turnover through native proteolytic circuits” (Nature, 2025)
Structures can show the parent of a compound that is named as a salt. The list shows a part of the results. Hit calls seldom repeat between salt and free forms of one compound.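 In K562 cells expressing nanoluciferase-fused kinases, luminescence was recorded at 4 h intervals between 2 and 18 h, normalized as percent of control with DMSO at 100% and a positive control at 0%. A significant (2 sigma) signal drop marks a time point as decreased. The authors' rule for a hit is not shown and takes in more than the number of time points.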

Chains of the proteins cited; added tags and fusions are not shown. Lines headed by an entry give the natural chain unless they say otherwise; changes in a name come on top.
UniProt P07949, whole entry, looked up: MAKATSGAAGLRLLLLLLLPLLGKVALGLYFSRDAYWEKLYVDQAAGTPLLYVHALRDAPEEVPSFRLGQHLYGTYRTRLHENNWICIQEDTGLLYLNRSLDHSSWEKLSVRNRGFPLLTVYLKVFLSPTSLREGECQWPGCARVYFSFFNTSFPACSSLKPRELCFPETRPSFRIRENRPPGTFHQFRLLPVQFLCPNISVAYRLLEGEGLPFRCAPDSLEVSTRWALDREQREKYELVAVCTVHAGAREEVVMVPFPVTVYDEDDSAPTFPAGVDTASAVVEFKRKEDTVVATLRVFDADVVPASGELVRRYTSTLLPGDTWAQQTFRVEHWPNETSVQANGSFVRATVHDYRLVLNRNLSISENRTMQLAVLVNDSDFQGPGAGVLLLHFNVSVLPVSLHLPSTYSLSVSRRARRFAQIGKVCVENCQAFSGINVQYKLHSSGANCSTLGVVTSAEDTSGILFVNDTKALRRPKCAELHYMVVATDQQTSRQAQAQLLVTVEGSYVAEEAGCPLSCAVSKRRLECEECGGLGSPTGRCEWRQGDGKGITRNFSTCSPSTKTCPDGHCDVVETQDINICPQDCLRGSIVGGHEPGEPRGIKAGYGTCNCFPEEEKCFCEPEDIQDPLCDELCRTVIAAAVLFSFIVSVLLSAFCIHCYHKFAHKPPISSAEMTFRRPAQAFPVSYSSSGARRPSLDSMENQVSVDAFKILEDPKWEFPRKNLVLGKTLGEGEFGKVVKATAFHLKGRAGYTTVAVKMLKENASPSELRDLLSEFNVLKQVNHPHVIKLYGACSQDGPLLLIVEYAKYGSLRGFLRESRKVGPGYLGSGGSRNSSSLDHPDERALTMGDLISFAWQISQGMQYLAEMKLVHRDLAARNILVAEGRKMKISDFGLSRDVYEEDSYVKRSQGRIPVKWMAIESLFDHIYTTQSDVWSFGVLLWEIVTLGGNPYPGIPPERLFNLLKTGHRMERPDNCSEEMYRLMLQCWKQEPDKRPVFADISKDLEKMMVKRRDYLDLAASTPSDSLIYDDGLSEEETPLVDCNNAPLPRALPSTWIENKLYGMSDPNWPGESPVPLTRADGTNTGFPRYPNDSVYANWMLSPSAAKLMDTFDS
UniProt P07949, whole entry M918T, looked up: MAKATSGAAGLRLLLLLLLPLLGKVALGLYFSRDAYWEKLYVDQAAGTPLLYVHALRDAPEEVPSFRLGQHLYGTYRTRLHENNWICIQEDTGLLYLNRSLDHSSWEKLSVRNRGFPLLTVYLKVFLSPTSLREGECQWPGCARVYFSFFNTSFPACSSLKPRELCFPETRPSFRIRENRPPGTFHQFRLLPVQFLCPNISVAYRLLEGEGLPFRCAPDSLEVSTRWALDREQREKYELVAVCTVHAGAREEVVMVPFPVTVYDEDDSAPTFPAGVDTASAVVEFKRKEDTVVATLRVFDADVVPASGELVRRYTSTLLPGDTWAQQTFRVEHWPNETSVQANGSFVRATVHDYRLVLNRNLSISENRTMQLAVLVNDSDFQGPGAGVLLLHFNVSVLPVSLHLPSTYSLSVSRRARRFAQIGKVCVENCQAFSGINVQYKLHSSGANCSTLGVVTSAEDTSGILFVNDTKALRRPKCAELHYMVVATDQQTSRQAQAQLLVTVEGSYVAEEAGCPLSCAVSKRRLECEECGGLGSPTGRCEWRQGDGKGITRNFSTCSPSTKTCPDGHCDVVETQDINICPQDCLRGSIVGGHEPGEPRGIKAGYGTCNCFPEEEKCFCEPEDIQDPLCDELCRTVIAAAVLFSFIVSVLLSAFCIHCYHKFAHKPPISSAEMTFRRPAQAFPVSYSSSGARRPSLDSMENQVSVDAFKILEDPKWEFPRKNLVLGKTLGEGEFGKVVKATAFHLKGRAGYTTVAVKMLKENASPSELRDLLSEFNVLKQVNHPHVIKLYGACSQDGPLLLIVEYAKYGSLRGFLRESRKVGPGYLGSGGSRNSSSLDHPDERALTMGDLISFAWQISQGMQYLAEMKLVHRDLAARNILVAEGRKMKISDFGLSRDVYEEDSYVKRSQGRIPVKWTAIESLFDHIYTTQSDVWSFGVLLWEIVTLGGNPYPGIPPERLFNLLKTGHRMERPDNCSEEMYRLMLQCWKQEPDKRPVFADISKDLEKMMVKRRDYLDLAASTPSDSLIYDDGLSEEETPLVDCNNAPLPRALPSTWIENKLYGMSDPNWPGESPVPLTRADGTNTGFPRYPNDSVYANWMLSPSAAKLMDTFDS
UniProt Q9BRS2: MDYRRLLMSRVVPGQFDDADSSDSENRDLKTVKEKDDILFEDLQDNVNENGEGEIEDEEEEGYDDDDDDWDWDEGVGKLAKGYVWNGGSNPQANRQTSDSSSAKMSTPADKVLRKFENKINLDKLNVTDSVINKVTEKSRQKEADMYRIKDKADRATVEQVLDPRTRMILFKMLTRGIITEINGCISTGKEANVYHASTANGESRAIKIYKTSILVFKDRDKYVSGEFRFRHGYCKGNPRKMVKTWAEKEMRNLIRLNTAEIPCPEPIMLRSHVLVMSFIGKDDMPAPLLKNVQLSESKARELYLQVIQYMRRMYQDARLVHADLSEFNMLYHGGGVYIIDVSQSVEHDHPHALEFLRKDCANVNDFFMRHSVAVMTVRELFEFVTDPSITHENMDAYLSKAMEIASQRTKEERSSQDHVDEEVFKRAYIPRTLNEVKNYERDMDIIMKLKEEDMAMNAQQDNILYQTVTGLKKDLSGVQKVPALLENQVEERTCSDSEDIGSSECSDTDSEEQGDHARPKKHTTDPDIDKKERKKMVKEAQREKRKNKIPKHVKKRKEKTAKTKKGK
UniProt Q13546: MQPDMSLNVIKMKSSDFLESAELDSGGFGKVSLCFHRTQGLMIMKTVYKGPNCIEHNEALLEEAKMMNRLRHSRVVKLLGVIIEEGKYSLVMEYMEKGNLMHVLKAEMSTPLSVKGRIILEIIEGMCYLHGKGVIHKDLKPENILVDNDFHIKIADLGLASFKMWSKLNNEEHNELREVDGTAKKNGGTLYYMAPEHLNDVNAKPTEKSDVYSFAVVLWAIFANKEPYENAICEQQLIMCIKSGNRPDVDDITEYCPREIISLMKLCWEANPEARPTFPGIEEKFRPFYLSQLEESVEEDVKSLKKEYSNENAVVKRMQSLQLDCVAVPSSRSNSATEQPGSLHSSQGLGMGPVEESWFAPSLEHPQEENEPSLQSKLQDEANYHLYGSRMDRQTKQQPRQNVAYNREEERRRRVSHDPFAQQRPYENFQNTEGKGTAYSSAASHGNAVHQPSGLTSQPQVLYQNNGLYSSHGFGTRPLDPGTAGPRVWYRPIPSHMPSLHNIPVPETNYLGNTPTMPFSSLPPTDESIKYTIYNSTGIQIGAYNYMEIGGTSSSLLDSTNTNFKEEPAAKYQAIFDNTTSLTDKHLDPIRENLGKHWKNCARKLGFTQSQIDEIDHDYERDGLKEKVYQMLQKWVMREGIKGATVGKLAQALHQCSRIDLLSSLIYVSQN
UniProt Q01974, whole entry: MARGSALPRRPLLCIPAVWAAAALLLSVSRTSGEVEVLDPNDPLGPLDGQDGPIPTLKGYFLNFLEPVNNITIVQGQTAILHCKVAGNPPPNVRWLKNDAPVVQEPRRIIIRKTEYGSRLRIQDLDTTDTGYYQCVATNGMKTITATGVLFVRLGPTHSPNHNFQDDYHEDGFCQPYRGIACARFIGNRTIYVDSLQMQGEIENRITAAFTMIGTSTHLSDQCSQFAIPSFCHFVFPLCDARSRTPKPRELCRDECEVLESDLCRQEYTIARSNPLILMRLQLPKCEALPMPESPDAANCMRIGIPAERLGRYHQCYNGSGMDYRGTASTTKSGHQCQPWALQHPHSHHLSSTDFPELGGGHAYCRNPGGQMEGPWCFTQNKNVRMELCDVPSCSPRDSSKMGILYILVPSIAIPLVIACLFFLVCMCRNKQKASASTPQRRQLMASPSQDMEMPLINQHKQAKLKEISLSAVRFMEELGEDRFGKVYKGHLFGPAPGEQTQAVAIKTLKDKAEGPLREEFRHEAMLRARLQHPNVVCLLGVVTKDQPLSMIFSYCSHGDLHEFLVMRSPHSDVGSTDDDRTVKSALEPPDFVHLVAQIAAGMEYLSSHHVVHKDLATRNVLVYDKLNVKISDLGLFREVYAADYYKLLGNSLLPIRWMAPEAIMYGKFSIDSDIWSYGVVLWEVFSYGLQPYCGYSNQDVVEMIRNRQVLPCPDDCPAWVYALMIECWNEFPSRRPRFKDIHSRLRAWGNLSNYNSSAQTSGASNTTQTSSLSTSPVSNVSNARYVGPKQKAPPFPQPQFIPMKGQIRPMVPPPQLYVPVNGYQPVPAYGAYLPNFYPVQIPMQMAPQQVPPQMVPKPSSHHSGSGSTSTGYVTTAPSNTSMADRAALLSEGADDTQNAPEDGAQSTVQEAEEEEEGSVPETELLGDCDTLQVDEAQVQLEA
UniProt Q15418, whole entry: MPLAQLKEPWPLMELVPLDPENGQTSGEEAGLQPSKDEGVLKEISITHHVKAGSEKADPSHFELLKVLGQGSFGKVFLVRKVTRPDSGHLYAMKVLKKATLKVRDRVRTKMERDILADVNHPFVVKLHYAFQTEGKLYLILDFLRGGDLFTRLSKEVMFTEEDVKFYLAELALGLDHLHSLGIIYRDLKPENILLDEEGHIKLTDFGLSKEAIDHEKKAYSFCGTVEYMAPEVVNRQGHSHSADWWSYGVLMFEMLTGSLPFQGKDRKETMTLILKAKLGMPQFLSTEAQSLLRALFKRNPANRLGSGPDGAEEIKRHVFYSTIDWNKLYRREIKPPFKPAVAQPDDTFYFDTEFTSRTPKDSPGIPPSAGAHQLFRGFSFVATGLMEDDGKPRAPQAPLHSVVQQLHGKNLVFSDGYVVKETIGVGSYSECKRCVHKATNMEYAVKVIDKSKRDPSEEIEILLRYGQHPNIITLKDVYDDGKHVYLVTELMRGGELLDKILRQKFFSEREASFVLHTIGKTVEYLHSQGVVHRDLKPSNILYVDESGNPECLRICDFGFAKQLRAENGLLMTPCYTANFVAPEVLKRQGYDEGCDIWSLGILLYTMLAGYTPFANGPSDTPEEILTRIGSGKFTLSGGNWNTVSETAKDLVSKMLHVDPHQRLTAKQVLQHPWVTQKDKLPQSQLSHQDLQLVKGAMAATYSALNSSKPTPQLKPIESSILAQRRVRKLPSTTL
UniProt Q9NYA1, whole entry: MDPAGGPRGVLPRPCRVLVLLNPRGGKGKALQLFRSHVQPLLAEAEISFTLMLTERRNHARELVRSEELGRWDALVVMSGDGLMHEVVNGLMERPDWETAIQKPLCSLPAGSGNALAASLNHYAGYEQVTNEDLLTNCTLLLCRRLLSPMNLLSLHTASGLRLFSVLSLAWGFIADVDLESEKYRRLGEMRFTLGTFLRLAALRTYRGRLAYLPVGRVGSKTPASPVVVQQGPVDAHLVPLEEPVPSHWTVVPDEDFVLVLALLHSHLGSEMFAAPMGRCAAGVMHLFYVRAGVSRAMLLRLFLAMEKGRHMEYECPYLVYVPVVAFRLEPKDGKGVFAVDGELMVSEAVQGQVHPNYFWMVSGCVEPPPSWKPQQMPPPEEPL
UniProt Q9Y6E0: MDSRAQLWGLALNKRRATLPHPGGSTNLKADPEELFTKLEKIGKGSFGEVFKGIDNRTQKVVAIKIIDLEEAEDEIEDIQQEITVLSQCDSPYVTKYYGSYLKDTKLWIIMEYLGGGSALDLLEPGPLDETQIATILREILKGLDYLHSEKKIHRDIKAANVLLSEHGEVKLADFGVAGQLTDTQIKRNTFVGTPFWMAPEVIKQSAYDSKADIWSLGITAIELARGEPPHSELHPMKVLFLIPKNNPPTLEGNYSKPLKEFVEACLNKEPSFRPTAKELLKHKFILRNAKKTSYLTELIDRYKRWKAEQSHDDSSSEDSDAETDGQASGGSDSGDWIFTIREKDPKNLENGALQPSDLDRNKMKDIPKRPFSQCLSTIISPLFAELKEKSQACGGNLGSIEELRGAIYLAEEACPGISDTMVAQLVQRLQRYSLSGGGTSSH

Legend:
Experiment in all cases: kinase-Nluc reporter destabilization hit call (1 = scored as downregulated) (binary); higher = compound decreases kinase abundance
Conditions in all cases: K562; 2-18 h
[1] = target: RET (UniProt P07949)
[2] = target: RET_M918T (clone: RET_mut) (UniProt P07949)
[3] = target: RIOK1 (UniProt Q9BRS2)
[4] = target: RIPK1 (UniProt Q13546)
[5] = target: RIPK2 (UniProt O43353)
[6] = target: ROR2 (UniProt Q01974)
[7] = target: RPS6KA1 (UniProt Q15418)
[8] = target: SPHK1 (UniProt Q9NYA1)
[9] = target: SRC (UniProt P12931)
[10] = target: STK24 (UniProt Q9Y6E0)

Measured: kinase-Nluc reporter destabilization hit call

CN1C(=O)[C@@H](NC(=O)c2n[nH]c(Cc3ccccc3)n2)COc2ccccc21 (10 µM)
inactive: [1] 0 | [2] 0 | [3] 0 | [4] 0 | [5] 0 | [6] 0 | [7] 0 | [8] 0 | [9] 0 | [10] 0

C[C@@H]1CC(=O)c2c(ccc3c2C(=O)c2cccc(O)c2C3=O)C1 [Ochromycinone] (10 µM)
inactive: [1] 0 | [2] 0 | [3] 0 | [4] 0 | [5] 0 | [6] 0 | [7] 0 | [8] 0 | [9] 0 | [10] 0

CNC(=O)c1cc2c(Oc3ccc(NC(=S)NC(=O)Cc4ccccc4)cc3F)ccnc2cc1OC [TAS-115 mesylate] (10 µM)
inactive: [1] 0 | [2] 0 | [3] 0 | [4] 0 | [5] 0 | [6] 0 | [7] 0 | [8] 0 | [9] 0 | [10] 0

CC(C)c1cc(/C=C(\C#N)C(=O)NCCCc2ccccc2)cc(C(C)C)c1O (10 µM)
inactive: [1] 0 | [2] 0 | [3] 0 | [4] 0 | [5] 0 | [6] 0 | [7] 0 | [8] 0 | [9] 0 | [10] 0

COc1ccc(-c2c(C)nn3c(NCCN4CCOCC4)cc(C)nc23)cc1OC (10 µM)
inactive: [1] 0 | [2] 0 | [3] 0 | [4] 0 | [5] 0 | [6] 0 | [7] 0 | [8] 0 | [9] 0 | [10] 0

Nc1ncnc2c1c(-c1ccc(Oc3ccccc3)cc1)nn2C1CCN(CCOCCOCCOc2ccc3c(c2)CN(C2CCC(=O)NC2=O)C3=O)CC1 (stereo not given) (2.5 µM)
inactive: [1] 0 | [2] 0 | [3] 0 | [4] 0 | [5] 0 | [6] 0 | [7] 0 | [8] 0 | [9] 0 | [10] 0

Cn1cc2cc(C(F)(F)c3nnc4ccc(-c5cnn(C6CC6)c5)nn34)c(F)cc2n1 [Bozitinib] (10 µM)
inactive: [1] 0 | [2] 0 | [3] 0 | [4] 0 | [5] 0 | [6] 0 | [7] 0 | [8] 0 | [9] 0 | [10] 0

C=C[C@@](C)(/C=C/c1ccc(O)cc1)CCC=C(C)C [Bakuchiol] (10 µM)
inactive: [1] 0 | [2] 0 | [3] 0 | [4] 0 | [5] 0 | [6] 0 | [7] 0 | [8] 0 | [9] 0 | [10] 0

Nc1cccc(-c2cc3c(Oc4cccc(O)c4)ncnc3[nH]2)c1 (10 µM)
inactive: [1] 0 | [2] 0 | [3] 0 | [4] 0 | [5] 0 | [6] 0 | [7] 0 | [8] 0 | [9] 0 | [10] 0

Cc1ccc(NC(=O)c2ccc(CN(CCN(C)C)C(=O)c3cccnc3)cc2)cc1Nc1nccc(-c2cccnc2)n1 [PDGFRα kinase inhibitor 1] (10 µM)
inactive: [1] 0 | [2] 0 | [3] 0 | [4] 0 | [5] 0 | [6] 0 | [7] 0 | [8] 0 | [9] 0 | [10] 0

Cc1ccc(Oc2nc3cc(-c4ccc(-c5ccccc5)cc4)c(Cl)cc3[nH]2)cc1C(=O)O (10 µM)
inactive: [1] 0 | [2] 0 | [3] 0 | [4] 0 | [5] 0 | [6] 0 | [7] 0 | [8] 0 | [9] 0 | [10] 0

C=CC(=O)Nc1cc(-n2c(=O)ccc3cnc4ccc(-c5ccc(NS(C)(=O)=O)cc5)cc4c32)ccc1C (10 µM)
inactive: [1] 0 | [2] 0 | [3] 0 | [4] 0 | [5] 0 | [6] 0 | [7] 0 | [8] 0 | [9] 0 | [10] 0

O=C1NC(=O)/C(=C/c2ccc3nccc(-c4ccncc4)c3c2)S1 (10 µM)
inactive: [1] 0 | [2] 0 | [3] 0 | [4] 0 | [5] 0 | [6] 0 | [7] 0 | [8] 0 | [9] 0 | [10] 0

C#Cc1cccc(Nc2ncnc3cc(OC)c(OCCCCCCC(=O)NO)cc23)c1 (2.5 µM)
inactive: [1] 0 | [2] 0 | [3] 0 | [4] 0 | [5] 0 | [6] 0 | [7] 0 | [8] 0 | [9] 0 | [10] 0

O=C1/C(=C\c2ccc(Cl)cc2)C=C(c2ccccc2)N1c1ccc(O)cc1 (2.5 µM)
inactive: [1] 0 | [2] 0 | [3] 0 | [4] 0 | [5] 0 | [6] 0 | [7] 0 | [8] 0 | [9] 0 | [10] 0
